The experiment has as its system SW480 human colon adenocarcinoma cells. The experiment can be described thus: Sulforhodamine B (SRB) growth inhibition / cytotoxicity, SW480.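 Also: cells exposed to graded doses from 10^-5 to 0.2 mM, with 1% DMSO as vehicle control, and cellular protein quantified by SRB staining after trichloroacetic acid fixation.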 The following applies: mean ± SE. The experiment is classed as cell-based.

Where only a bound is given, the exact number is not on record here.

The IC50 is the midpoint of a concentration-inhibition curve. A low value points to higher potency.

Regarding `COc1ccc2cc([C@H](C)C(=O)O)ccc2c1` [Naproxen, reference compound], the IC50 (24 h) was over 0.2 mM and the IC50 (48 h) was over 0.2 mM.

Source of the values: article PMC8653649, “Promising Hybrids Derived from S-Allylcysteine and NSAIDs Fragments against Colorectal Cancer: Synthesis, In-vitro Evaluation, Drug-Likeness and In-silico ADME/tox Studies” (Iranian Journal of Pharmaceutical Research : IJPR, 2021).
